# PubChem BioAssay (Tox21)
# The chains behind the UniProt entries cited, without tags or fusion partners. Where a name states a change or a piece, a line headed by the entry shows the natural chain unless it says otherwise.
# UniProt Q14994: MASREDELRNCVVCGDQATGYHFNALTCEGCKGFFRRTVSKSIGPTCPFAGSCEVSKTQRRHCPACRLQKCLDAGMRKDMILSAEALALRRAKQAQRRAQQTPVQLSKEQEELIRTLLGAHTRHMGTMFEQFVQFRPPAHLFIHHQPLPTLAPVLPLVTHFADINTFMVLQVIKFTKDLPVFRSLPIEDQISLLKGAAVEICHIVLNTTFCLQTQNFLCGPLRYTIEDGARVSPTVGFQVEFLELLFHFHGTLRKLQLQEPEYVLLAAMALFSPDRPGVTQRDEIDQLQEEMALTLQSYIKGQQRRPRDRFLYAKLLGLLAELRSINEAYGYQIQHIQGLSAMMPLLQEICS
# “And” between values parts separate entries of the source, which are not always exact repeats. Identical values can stand only once. For part of these data: This list holds what a sample rich in hits left over. Inconclusive results are not listed. The entries are a selection whose mix differs from that of the whole data set. The source holds several records for some structures; these can differ, active in one and inactive in another. The source made the active and inactive calls. Unless noted, calls come from the whole dose curve; as a rule, active = well fitted curve in the direction sought with a large enough effect in the repeat runs; inconclusive = weak or mixed curves; inactive = no such curve, though single readings can be large; an effect the other way counts as inactive or inconclusive.
# Tests used:
# [1] = qHTS assay to identify small molecule antagonists of the retinoic acid receptor (RAR) signaling pathway (AID 1159552; note: nearly all actives have a fitted effect of over 50% in size); settings: C3RL4 RARE luciferase reporter, retinol-stimulated, 6 h; at 92.4 µM (top of the series)
# Summary of the method: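 RARE-luc C3RL4 cells; cpds + 1 uM (final) retinol, 6 hr, 37 C/5% CO2; luciferase reagent, 30 min RT, luminescence readout. Inhibitors of retinol-driven signal scored.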
# [2] = qHTS assay to identify small molecule agonists of the retinoic acid receptor (RAR) signaling pathway (AID 1159553); settings: C3RL4 RARE luciferase reporter, agonist, 6 h; at 94.8 µM (top of the series)
# Summary of the method: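 Luminescence from a RARE-driven luciferase reporter in C3RL4 cells served as the read-out, measured after 30 min with detection reagent at room temperature. Compounds in DMSO were applied for 6 hr at 37 C following overnight seeding.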
# [3] = qHTS assay to identify small molecule agonists of the constitutive androstane receptor (CAR) signaling pathway - cell viability counter screen (AID 1224836); settings: HepG2-CYP2B6-hCAR viability, CellTiter-Fluor, 23 h, PK11195 added to every well; note: nearly all actives have a fitted effect of over 45% in size
# Summary of the method: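 HepG2 cells stably carrying hCAR and a CYP2B6-2.2kb reporter were plated 4 h, then given compounds at 15 concentrations plus PK11195 (final 0.75 uM). After 23 h at 37 C, viability was read by CellTiter-Fluor fluorescence.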
# [4] = qHTS assay to identify small molecule antagonists of the constitutive androstane receptor (CAR) signaling pathway - cell viability counter screen (AID 1224837); settings: HepG2-CYP2B6-hCAR viability, CellTiter-Fluor, 23 h, co-treated with 50 nM CITCO; note: nearly all actives have a fitted effect of over 45% in size
# Summary of the method: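 HepG2-CYP2B6-hCAR cells, 2500/well, 4 hr pre-incubation; compound titration, 15 conc.; CITCO 50 nM final; 23 hr, 37 C/5% CO2; CellTiter-Fluor, fluorescence intensity.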
# [5] = biological target: Nuclear receptor subfamily 1 group I member 3 (Homo sapiens) (UniProt Q14994); test: qHTS assay to identify small molecule antagonists of the constitutive androstane receptor (CAR) signaling pathway (AID 1224838); settings: HepG2-CYP2B6-hCAR luciferase, CITCO-stimulated, 24 h; at 92.4 µM (top of the series); note: nearly all actives have a fitted effect of over 40% in size
# Summary of the method: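 HepG2-CYP2B6-hCAR cells; 4 h pre-incubation; cpd (15 conc) + CITCO 50 nM final; 24 h, 37 C/5% CO2; ONE-Glo, luminescence.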
# [6] = biological target: Nuclear receptor subfamily 1 group I member 3 (Homo sapiens) (UniProt Q14994); test: qHTS assay to identify small molecule agonists of the constitutive androstane receptor (CAR) signaling pathway (AID 1224839); settings: HepG2 hCAR CYP2B6-luciferase, agonist mode, 24 h; at 92.4 µM (top of the series);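 note: HepG2 cells stably carrying human CAR and a CYP2B6 luciferase reporter; nearly all actives have a fitted effect of over 15% in size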
# Summary of the method: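 HepG2 cells stably expressing hCAR and a CYP2B6-2.2kb luciferase reporter were treated with compounds at 15 concentrations plus 0.75 uM PK11195 (final) for 24 h at 37 C; luminescence was read after ONE-Glo addition.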
# [7] = qHTS assay to identify small molecule agonists of the hypoxia (HIF-1) signaling pathway - cell viability counter screen (AID 1224844; calls by dose curve; note: nearly all actives have a fitted effect of over 50% in size); settings: HRE-bla ME-180 viability, CellTiter-Glo luminescence, 17 h
# Summary of the method: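 ME-180 HRE-bla cells, 2,000/well, 0.5% dialyzed FBS; 5 hr settle, 17 hr compound at 37C/5% CO2; CCF4-AM reporter read first, then CellTiter-Glo luminescence after 30 min RT.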
# [8] = qHTS assay to identify small molecule agonists of H2AX - cell viability counter screen (AID 1224847; calls by dose curve; note: nearly all actives have a fitted effect of over 30% in size; note: potency is the fitted concentration of half-maximal effect; for activity change, negative = cytotoxicity: top concentration of the series differs between compounds)
# Summary of the method: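 Wild-type CHO-K1 cells (10% FBS medium) were plated overnight at 37C, exposed to compounds at 15 concentrations for 3 hr at 37C (0.76% DMSO final), and viability was read as CellTiter-Glo luminescence after 30 min at room temperature.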
# [9] = qHTS RealTime-Glo MT Cell Viability Assay in HepG2 cells - 24 hour (AID 1224867); settings: RealTime-Glo luminescence; note: nearly all actives have a fitted effect of over 50% in size
# Summary of the method: (§1)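 Cell number in HepG2 cultures estimated from NanoLuc luminescence generated by metabolic reduction of a prosubstrate by living cells. The homogeneous, nonlytic format allowed repeated reads at 0, 8, 16, 24, 32 and 40 h of compound exposure.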
# [10] = qHTS RealTime-Glo MT Cell Viability Assay in HEK293 cells - 32 hour (AID 1224868); settings: RealTime-Glo luminescence; note: top concentration of the series differs between compounds; nearly all actives have a fitted effect of over 50% in size
# Summary of the method: (§2)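 Homogeneous bioluminescent viability format in HEK293 cells (600 cells/well). Following 5 h at 37 C/5% CO2, 23 nL compound was pintooled; the signal was measured repeatedly during 40 h incubation.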
# [11] = qHTS RealTime-Glo MT Cell Viability Assay in HepG2 cells - 40 hour (AID 1224870); settings: RealTime-Glo luminescence; note: nearly all actives have a fitted effect of over 50% in size
# Summary of the method: (§3)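 HepG2 cells (600/well) mixed with RealTime-Glo MT reagent, settled 5 h at 37 C/5% CO2 before compound addition. Nonlytic NanoLuc luminescence from viable-cell prosubstrate reduction read repeatedly during 40 h treatment at 37 C.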
# [12] = qHTS RealTime-Glo MT Cell Viability Assay in HEK293 cells - 16 hour (AID 1224872); settings: RealTime-Glo luminescence
# Summary of the method: as §2
# [13] = qHTS RealTime-Glo MT Cell Viability Assay in HepG2 cells - 8 hour (AID 1224873); settings: RealTime-Glo luminescence; note: nearly all actives have a fitted effect of over 55% in size
# Summary of the method: as §3
# [14] = qHTS RealTime-Glo MT Cell Viability Assay in HepG2 cells - 32 hour (AID 1224877); settings: RealTime-Glo luminescence; note: nearly all actives have a fitted effect of over 55% in size
# Summary of the method: as §1
# [15] = qHTS RealTime-Glo MT Cell Viability Assay in HepG2 cells - 16 hour (AID 1224885); settings: RealTime-Glo luminescence; note: nearly all actives have a fitted effect of over 50% in size
# Summary of the method: as §1
# [16] = qHTS RealTime-Glo MT Cell Viability Assay in HEK293 cells - 24 hour (AID 1224886); settings: RealTime-Glo luminescence
# Summary of the method: as §2
# [17] = qHTS RealTime-Glo MT Cell Viability Assay in HEK293 cells - 8 hour (AID 1224887); settings: RealTime-Glo luminescence
# Summary of the method: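 Cells were seeded together with NanoLuc luciferase and a prosubstrate that viable cells reduce to a luciferase substrate. After a 5 h incubation at 37 C/5% CO2, compounds were added and luminescence was measured repeatedly during 40 h of treatment.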
# [18] = qHTS RealTime-Glo MT Cell Viability Assay in HepG2 cells - 0 hour (AID 1224889); settings: RealTime-Glo luminescence; note: nearly all actives have a fitted effect of over 50% in size
# Summary of the method: as §1
# [19] = qHTS assay to identify small molecule antagonists of the estrogen receptor alpha (ER-alpha) signaling pathway using the BG1 cell line in the presence of 0.1 nM 17-beta-estradiol - cell viability counter screen (AID 1259241); settings: VM7Luc4E2 (BG1) viability, CellTiter-Fluor protease, 22 h, 0.1 nM estradiol agonist added; note: nearly all actives have a fitted effect of over 40% in size
# Summary of the method: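 VM7Luc4E2 cells (endogenous ER-alpha, 4×ERE-luciferase), hormone-starved 5 days in charcoal-stripped FBS, were treated with compounds plus 0.1 nM 17beta-estradiol for 22 hr at 37C; viability read in same wells as CellTiter-Fluor live-cell protease fluorescence.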
# [20] = qHTS assay to identify small molecule antagonists of the androgen receptor (AR) signaling pathway using the MDA cell line in the presence of 0.5 nM R1881 - cell viability counter screen (AID 1259242); settings: MDA-kb2 viability, CellTiter-Fluor protease fluorescence, 16 h; note: nearly all actives have a fitted effect of over 45% in size
# Summary of the method: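 Counter screen for cytotoxicity run in the same wells as the AR antagonist reporter screen: MDA-kb2 cells were treated 16 hr with test compounds and 0.5 nM R1881, then live-cell protease activity was measured by fluorescence.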
# % is set by controls: 0 for no effect and ±100 for the full control effect.
structure (smiles),measurement,setting,value
Cc1ccc(O)cc1C,"activity, negative = inhibition",[1],inactive: 28% and inactive: -2.79%
same,activation,[2],inactive: -0.417%
same,"viability change, negative = cytotoxic",[3]; at 92.4 µM (top of the series),inactive: 2.5% and inactive: 0.635%
same,"activity change, negative = cytotoxicity",[4]; at 92.4 µM (top of the series),inactive: 2.51% and inactive: 6.83%
same,"activity, negative = inhibition",[5],inactive: 2.97% and inactive: 5.93%
same,activation,[6],inactive: -0.787% and inactive: -1.05%
same,"activity change, negative = cytotoxicity",[7]; at 76.8 µM (top of the series),inactive: 5.88%
same,Potency,[8],inactive
same,"activity change, negative = cytotoxicity",[9]; at 76.8 µM (top of the series),inactive: -0.688% and inactive: 4.51%
same,"activity change, negative = cytotoxic",[10]; at 76.8 µM (top of the series),inactive: 1.51% and inactive: 14.5%
same,"activity change, negative = cytotoxic",[11]; at 76.8 µM (top of the series),inactive: -0.199% and inactive: 0.825%
same,"activity change, negative = cytotoxicity",[12]; at 76.8 µM (top of the series),inactive: 2.45% and inactive: 11.5%
same,"viability change, negative = cytotoxic",[13]; at 76.8 µM (top of the series),inactive: 4.83% and inactive: 6.29%
same,"activity change, negative = cytotoxic",[14]; at 76.8 µM (top of the series),inactive: -0.415% and inactive: 1.5%
same,"activity change, negative = cytotoxic",[15]; at 76.8 µM (top of the series),inactive: 0.933% and inactive: 1.84%
same,"activity change, negative = cytotoxicity",[16]; at 76.8 µM (top of the series),inactive: 1.04% and inactive: 12.7%
same,"activity change, negative = cytotoxicity",[17]; at 76.8 µM (top of the series),inactive: 3.69% and inactive: 2.83%
same,"activity change, negative = cytotoxicity",[18]; at 76.8 µM (top of the series),inactive: 9.71% and inactive: 6.62%
same,"activity change, negative = cytotoxicity",[19]; at 92.4 µM (top of the series),inactive: 2.89% and inactive: -2.59%
same,"viability change, negative = cytotoxic",[20]; at 92.4 µM (top of the series),inactive: 3.25% and inactive: 5.2%
CC(C)(C)c1ccc(O)cc1,"viability change, negative = cytotoxic",[3]; at 42.5 µM (top of the series),inactive: 9.94%
same,"viability change, negative = cytotoxic",[3]; at 92.4 µM (top of the series),inactive: -3.85% and inactive: -9.54%
same,"activity change, negative = cytotoxicity",[4]; at 42.5 µM (top of the series),inactive: 8.72%
same,"activity change, negative = cytotoxicity",[4]; at 92.4 µM (top of the series),inactive: -5.26% and inactive: 0.307%
same,"activity change, negative = cytotoxicity",[7]; at 35.3 µM (top of the series),inactive: -2.14%
same,"activity change, negative = cytotoxicity",[7]; at 76.8 µM (top of the series),inactive: -16.4% and inactive: 1.26%
same,Potency,[8],active: 101 µM and inactive
same,"activity change, negative = cytotoxicity",[9]; at 35.3 µM (top of the series),inactive: -7.91%
same,"activity change, negative = cytotoxicity",[9]; at 76.8 µM (top of the series),inactive: -3.9% and inactive: -10.3%
same,"activity change, negative = cytotoxic",[10]; at 35.3 µM (top of the series),inactive: -7.41%
same,"activity change, negative = cytotoxic",[10]; at 76.8 µM (top of the series),inactive: -4.49% and inactive: -28.9%
same,"activity change, negative = cytotoxic",[11]; at 35.3 µM (top of the series),inactive: 1.47%
same,"activity change, negative = cytotoxic",[11]; at 76.8 µM (top of the series),inactive: 2.92% and inactive: -5.03%
same,"activity change, negative = cytotoxicity",[12]; at 35.3 µM (top of the series),inactive: -11.4%
same,"activity change, negative = cytotoxicity",[12]; at 76.8 µM (top of the series),inactive: -17.5% and inactive: -16.7%
same,"viability change, negative = cytotoxic",[13]; at 35.3 µM (top of the series),inactive: -13.7%
same,"viability change, negative = cytotoxic",[13]; at 76.8 µM (top of the series),inactive: -10% and inactive: -10.7%
same,"activity change, negative = cytotoxic",[14]; at 35.3 µM (top of the series),inactive: -0.117%
same,"activity change, negative = cytotoxic",[14]; at 76.8 µM (top of the series),inactive: 0.536% and inactive: -8.42%
same,"activity change, negative = cytotoxic",[15]; at 35.3 µM (top of the series),inactive: -11.9%
same,"activity change, negative = cytotoxic",[15]; at 76.8 µM (top of the series),inactive: -6.07% and inactive: -11.1%
same,"activity change, negative = cytotoxicity",[16]; at 35.3 µM (top of the series),inactive: -11.6%
same,"activity change, negative = cytotoxicity",[16]; at 76.8 µM (top of the series),inactive: -17.3% and inactive: -24.3%
same,"activity change, negative = cytotoxicity",[17]; at 35.3 µM (top of the series),inactive: -14.6%
same,"activity change, negative = cytotoxicity",[17]; at 76.8 µM (top of the series),inactive: -21.4% and inactive: -13.6%
same,"activity change, negative = cytotoxicity",[18]; at 35.3 µM (top of the series),inactive: 10.6%
same,"activity change, negative = cytotoxicity",[18]; at 76.8 µM (top of the series),inactive: 12.3% and inactive: 0.223%
same,"activity change, negative = cytotoxicity",[19]; at 42.5 µM (top of the series),inactive: 0.148%
same,"activity change, negative = cytotoxicity",[19]; at 92.4 µM (top of the series),inactive: -1.65% and inactive: -0.699%
same,"viability change, negative = cytotoxic",[20]; at 42.5 µM (top of the series),inactive: 5.51%
same,"viability change, negative = cytotoxic",[20]; at 92.4 µM (top of the series),inactive: -2.26% and inactive: 1.89%
